These are yes or no findings as the source states them, for the method shown. For some assays here: In cells and extracts the contact can be indirect. Some results given as binding are weak or reduced against the parent protein; the word gives no strength. For some assays here: Sequences can lack the tags named with a protein.
T1: GST-ATP5O (mouse) (UniProt Q9DB20)
T1 sequence: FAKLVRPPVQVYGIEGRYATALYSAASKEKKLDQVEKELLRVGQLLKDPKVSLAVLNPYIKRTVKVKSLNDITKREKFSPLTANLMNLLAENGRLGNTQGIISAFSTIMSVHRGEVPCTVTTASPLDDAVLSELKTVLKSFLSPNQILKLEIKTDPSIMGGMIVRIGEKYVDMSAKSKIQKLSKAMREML

The chains behind the UniProt entries cited, without tags or fusion partners.
UniProt P70288: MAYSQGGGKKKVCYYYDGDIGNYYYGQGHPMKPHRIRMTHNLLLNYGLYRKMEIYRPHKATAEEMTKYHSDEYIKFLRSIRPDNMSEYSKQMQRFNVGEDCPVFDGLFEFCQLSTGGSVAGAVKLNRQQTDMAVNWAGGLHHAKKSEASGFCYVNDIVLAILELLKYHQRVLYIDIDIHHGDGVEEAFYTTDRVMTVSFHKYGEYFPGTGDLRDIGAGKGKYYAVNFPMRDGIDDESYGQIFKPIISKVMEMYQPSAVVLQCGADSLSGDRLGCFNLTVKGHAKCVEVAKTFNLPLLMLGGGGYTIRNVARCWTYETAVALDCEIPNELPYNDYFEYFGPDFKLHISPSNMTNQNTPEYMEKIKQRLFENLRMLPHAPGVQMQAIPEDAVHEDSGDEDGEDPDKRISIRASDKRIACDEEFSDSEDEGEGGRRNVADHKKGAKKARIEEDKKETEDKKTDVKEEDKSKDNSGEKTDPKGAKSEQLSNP

B1: ATP synthase, H+ transporting, mitochondrial F1 complex, O subunit (ATP5O) (protein, UniProt Q9DB20 24-213)
chain: T1 sequence

Assays:
GST-ATP5O (mouse) = target: T1, GST-ATP5O (mouse); assay: pull-down; GST-pulldown; GST-ATP5O (purified from E.coli) as bait, his-tagged HDAC2-TagRFP (purified from sf9 cells) as prey; read by SDS-PAGE; both purified
[1] = target: Histone deacetylase 2 (HDAC2) (UniProt P70288); assay: co-IP; coimmunoprecipitation and western blot; the text shown names neither the source of the lysate nor the precipitating antibody (methods in the supplementary information)

| Molecule | binding (GST-ATP5O (mouse)) | binding [1] |
| --- | --- | --- |
| his-tagged HDAC2-TagRFP (from UniProt P70288 1-488) (enzyme) | binds | – |
| B1 | – | binds |

Reference: PMC11030818
